Measurements published in patent publication US20250135026A1 (BeiGene Switzerland GmbH, priority 2021, published 2025).

Test: general procedure: solution-phase peptide synthesis; HOBt/DIEA; HATU/DIEA
Details: conjugation step

Row | Substance | conjugation yield
1 | (2-((2S,3R,4S,5R)-5-((((benzyloxy)carbonyl)amino)methyl)-3,4-dihydroxytetrahydrofuran-2-yl)acetyl)glycylglycylglycylglycine | 19%
2 | (2R,3S,4S,5R,6R)-2-(acetoxymethyl)-6-(((11S,19R)-11-benzyl-19-((benzyloxy)carbonyl)-1-(9H-fluoren-9-yl)-3,6,9,12,15-pentaoxo-2,18-dioxa-4,7,10,13,16-pentaazaicosan-20-yl)oxy)tetrahydro-2H-pyran-3,4,5-triyl triacetate (56c) | 21.1% yield
3 | (9H-fluoren-9-yl)methyl ((S)-7-benzyl-17-(((1S,9S)-9-ethyl-5-fluoro-9-hydroxy-4-methyl-10,13-dioxo-2,3,9,10,13,15-hexahydro-1H,12H-benzo[de]pyrano[3′,4′:6,7]indolizino[1,2-b]quinolin-1-yl)amino)-16,16-dimethyl-2,5,8,11,17-pentaoxo-14-oxa-3,6,9,12-tetraazaheptadecyl)carbamate | 88.2%
